PubChem BioAssay AID1259254 – NCATS – 2017
In all, the deposit lists about 59,000 reagents; below is an unselected part. About 1,550 of them (2.6%) were called active. 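G2 share is only a proxy for re-replication; each gene was hit by three separate siRNAs, and active genes were retested.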 A number with no mark means an inactive call. Not all columns of the deposit are shown. The record does not give: the amount of reagent.

Test: 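Genome-wide screen for genes that prevent DNA re-replication in cancer cells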 (primary screen)
Cell system: human HCT116 colorectal cancer cells
Knock-down reagent: single siRNA against human genes
Timing: 3 days
Measurement: 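Imaged Hoechst DNA stain sorts each cell into a cycle phase by DNA amount; per plate, G2 fraction set to 0% for non-targeting and 100% for GMNN siRNA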
Reading the numbers: G2 robust z-score: higher = more G2 cells, more excess DNA replication
Rule for the call: 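An siRNA counts as active if its G2 robust z-score lies at least 5 MADs above the screen median; here such calls match roughly 38% of GMNN control or more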

The opening 3 entries as a preview:
| gene symbol | PubChem SID | G2 robust z-score |
| --- | --- | --- |
| CACNA2D3 | SID160744389 | -0.0742 |
| CACNA2D3 | SID160744390 | 0.0245 |
| CACNA2D3 | SID160744392 | -0.881 |

Main list, from the start:
| gene symbol | PubChem SID | G2 robust z-score |
| --- | --- | --- |
| CACNA2D3 | SID160744389 | -0.0742 |
| CACNA2D3 | SID160744390 | 0.0245 |
| CACNA2D3 | SID160744392 | -0.881 |
| ATF1 (activating transcription factor 1) | SID160721036 | 0.0111 |
| ATF1 (activating transcription factor 1) | SID160721047 | -1.44 |
| ATF1 (activating transcription factor 1) | SID160721058 | 0.2 |
| CCSER2 (coiled-coil serine rich protein 2) | SID160741719 | 1.32 |
| CCSER2 (coiled-coil serine rich protein 2) | SID160741721 | 2.78 |
| CCSER2 (coiled-coil serine rich protein 2) | SID160741722 | -0.827 |
| FMO3 (flavin containing dimethylaniline monoxygenase 3) | SID160766731 | 0.568 |
| FMO3 (flavin containing dimethylaniline monoxygenase 3) | SID160766736 | 2.51 |
| FMO3 (flavin containing dimethylaniline monoxygenase 3) | SID160766745 | -0.265 |
| ABCC3 (ATP binding cassette subfamily C member 3) | SID160720656 | -1.11 |
| ABCC3 (ATP binding cassette subfamily C member 3) | SID160720657 | 4.61 |
| ABCC3 (ATP binding cassette subfamily C member 3) | SID160720658 | 0.0198 |
| CSF3R (colony stimulating factor 3 receptor) | SID160749183 | -0.386 |
| CSF3R (colony stimulating factor 3 receptor) | SID160749195 | -0.601 |
| CSF3R (colony stimulating factor 3 receptor) | SID160749206 | 4.15 |
| LYPLA2 (lysophospholipase 2) | SID160730381 | -0.808 |
| LYPLA2 (lysophospholipase 2) | SID160730382 | 4.53 |
| LYPLA2 (lysophospholipase 2) | SID160730385 | 3.21 |
| OR56A3 (olfactory receptor family 56 subfamily A member 3) | SID160766380 | -0.761 |
| OR56A3 (olfactory receptor family 56 subfamily A member 3) | SID160766382 | 0.394 |
| OR56A3 (olfactory receptor family 56 subfamily A member 3) | SID160766383 | 2.71 |
| ACTC1 (actin alpha cardiac muscle 1) | SID160778015 | 1.99 |
| ACTC1 (actin alpha cardiac muscle 1) | SID160778026 | 0.0989 |
| ACTC1 (actin alpha cardiac muscle 1) | SID160778037 | 0.801 |
| MKNK1 (MAPK interacting serine/threonine kinase 1) | SID160720359 | 0.614 |
| MKNK1 (MAPK interacting serine/threonine kinase 1) | SID160720361 | -0.652 |
| MKNK1 (MAPK interacting serine/threonine kinase 1) | SID160720362 | -0.347 |
